Reference: patent publication US20190225703A1

Experiments:
[1] = molecular target: human CD73 (ecto-5'-nucleotidase) expressed at the cell surface (human); experiment: flow cytometry titration on human-CD73-expressing cell line
[2] = molecular target: human CD73 (ecto-5'-nucleotidase) expressed at the cell surface (human); experiment: flow cytometry titration on MDA-MB-231 cells, endogenous CD73
[3] = molecular target: cynomolgus CD73 expressed at the cell surface (cynomolgus); experiment: flow cytometry titration on CD73-transfected cell lines (FIG. 1)
[4] = molecular target: human CD73 (ecto-5'-nucleotidase) expressed at the cell surface (human); experiment: as above
[5] = molecular target: cynomolgus CD73 expressed at the cell surface (cynomolgus); experiment: flow cytometry titration on cynomolgus-CD73-expressing cell line
[6] = molecular target: human CD73 (ecto-5'-nucleotidase) expressed at the cell surface (human); experiment: flow cytometry titration on cells expressing wild type CD73 (FIG. 3A)
[7] = molecular target: human CD73 (ecto-5'-nucleotidase) expressed at the cell surface (human); experiment: flow cytometry titration on MDA-MB-231 cells, endogenous CD73 (FIG. 2)
[8] = molecular target: human CD73 (ecto-5'-nucleotidase) expressed at the cell surface (human); experiment: flow cytometry titration on MDA-MB-231 cells (endogenous human CD73)
[9] = molecular target: human CD73 (ecto-5'-nucleotidase) expressed at the cell surface (human); experiment: flow cytometry titration on HEK-293T cells transfected with wild type human CD73
[10] = molecular target: human CD73 (ecto-5'-nucleotidase) expressed at the cell surface (human); experiment: flow cytometry titration on a cell line expressing human CD73, PE-labelled secondary antibody
[11] = molecular target: cynomolgus CD73 expressed at the cell surface (cynomolgus); experiment: flow cytometry titration on a cell line expressing cynomolgus CD73, PE-labelled secondary antibody
[12] = molecular target: human CD73 (ecto-5'-nucleotidase) expressed at the cell surface (human); experiment: flow cytometry titration on cells expressing wild type CD73 (FIG. 3B)

Measured: binding

B1: antibody 7H10 (antibody, human IgG1, V domains shown)
VH: DVQLQESGPGLVKPSQSLSLTCTVTGYSITSDYAWNWIRQFPGNKLEWMGYIIYSGSTSYNPSLNSRISITRDTSKNQFFLQLNSVTTEDTATYYCAREAYLYFDYWGQGTTLTVSS
VL: DIQMTQTTSSLSASLGDRVTISCRASQDINNYLNWYQQKPDGTVKLLIYYTSRLHSGVPSRFSGSGSGTDYSLTISNLEREDVATYFCQQGNTLPWTFGGGTKLEIK
binds: [1] | [2] | [3] | [4] | [5] | [6] | [7] | [8] | [9] | [10] | [11]

B2: antibody 12F9 (antibody, human IgG1, V domains shown)
VH: QVQLQQSGPELVKPGASVRISCKASGYTFTNYYIHWVKQRPGQGLEWIGWIYPGNVNTKYNEKFKGKATLTADKSSNTAYMQLSSLTSEDSAVYFCAREGGYDRYALDYWGQGTSVTVSS
VL: QIVLTQSPALMSASPGEKVTMTCSASSSVSYMYWYQQKPRSSPKPWIYLTSNLASGVPARFSGSGSGTSYSLTISSMEAEDAATYYCQQWSSNPLTFGAGTKLELK
binds: [1] | [3] | [4] | [5] | [12] | [8] | [9] | [10] | [11]

These are yes or no findings as the source states them, for the method shown. A result given as binding can be weak or reduced; the word gives no strength.
